# Measured values from PubChem BioAssay AID2685 (National Center for Advancing Translational Sciences (NCATS), 2010).
# Several values for one entry are separate records, joined by “and”; a condition that tells them apart may be missing. Identical values can stand only once. Some of the results follow. The main result of the screen is listed elsewhere. These columns were measured beside it and carry no call. The list favours compounds with an active or inconclusive main result. Potencies come from curve fits of mixed quality, noted in brackets.
# Test: qHTS Assay for Lipid Storage Modulators in Drosophila S3 Cells;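 as to cell number change: cells counted by Cell Tracker Red CMTPX staining in the red channel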
# Conditions: BODIPY lipid droplet fluorescence, 18-24 h; for cell number change: measured here: cell count max response, cells fed with added oleic acid
# In short: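 Drosophila S3 cells loaded with oleic acid (400 uM, as added) and compounds at several concentrations; lipid droplets imaged by 488-nm laser-scanning cytometry, 500–530 nm intensity and object ratio to cell channel. Percent activity normalized to 20 uM Triacsin C.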
# [1] = measured here: lipid fluorescence (Fed channel) AC50, cells fed with added oleic acid
# [2] = measured here: cell number channel AC50, cells fed with added oleic acid
Structure (SMILES),cell number change,AC50 [1],AC50 [2]
C=CCOC(=O)C1=C(C)OC(N)=C(C#N)C12C(=O)N(CN1CCOCC1)c1ccccc12 (stereo not drawn),-5.18%,,
N/C(=N/[N+](=O)[O-])N1CCN(C(=O)Oc2ccc([N+](=O)[O-])cc2)CC1,-20.4%,"0.411 µM [falling, full curve]",
COc1ccc2c(c1OC)C(=O)OC2c1c(O)n(C2CCCCC2)c(=O)[nH]c1=O (stereo not drawn),-2.56%,"0.291 µM [falling, full curve, poor fit]","0.00517 µM [falling, full curve, poor fit]"
CCOc1ccc(Cc2c(O)[nH]c(=O)[nH]c2=O)cc1,-5.47%,,
O=C(C1CCCN(c2nnc(-n3cccc3)s2)C1)N1CCC2(CC1)OCCO2 (stereo not drawn),,"6.51 µM [rising, single point]",
OC12ONC(c3ccccn3)C1N1CCC2CC1 (stereo not drawn),48.7%,"2.06 µM [rising, full curve]","5.17 µM [rising, full curve]"
CCN(CC)P(=O)(Oc1ccccc1)Oc1ccccc1,17.1%,,"0.00461 µM [rising, full curve, poor fit]"
CCC(COC(=O)c1cc(OC)c(OC)c(OC)c1)(c1ccccc1)N(C)C (stereo not drawn),-14.9% and -4.14%,"20.6 µM [rising, single point]",
COc1cc2[nH]c(=O)n(-c3ccc(C)cc3)c(=O)c2cc1OC,19.7%,"1.3 µM [rising, partial curve]",
CCn1ccnc1CN1CCCC(C(=O)c2cc(C)c(OC)c(C)c2)C1 (stereo not drawn),15.7%,"29.1 µM [falling, single point]",
CCc1ccccc1N1C(=O)NC(=O)/C(=C\c2cc(C)n(C)c2C)C1=O,,"29.1 µM [rising, single point]","0.517 µM [rising, single point]"
COc1cc2[nH]c(=O)n(-c3cccc(Cl)c3)c(=O)c2cc1OC,84.6%,,"16.4 µM [rising, single point]"
COc1ccccc1OCC(=O)N1CCCC(N(C)Cc2ccccc2)C1 (stereo not drawn),,"29.1 µM [rising, single point]",
CN(C)C1=NP(N(C)C)(N(C)C)=NC(c2ccccc2)=N1,-17.3%,,
CC(=O)Nc1ccccc1C(=O)C(=O)Nc1cccc(C(=O)N2CCC3(CC2)OCCO3)c1,,"0.731 µM [falling, single point]",
O=C(C1CC(=O)N(C2CCCCCCC2)C1)N1CCC2(CC1)OCCO2 (stereo not drawn),-32.9%,"14.6 µM [falling, partial curve]","9.2 µM [falling, partial curve, poor fit]"
CC(=O)c1cn(Cc2ccc(F)cc2)c2ccccc12,24.9%,"20.6 µM [rising, single point]",
Cc1cc(C)nc(N2Cc3ccccc3C2=N)n1,15.4%,"0.00411 µM [rising, full curve, poor fit]",
Cc1ccc(NC2=NCCCS2)cc1Cl,9.66%,"6.51 µM [falling, single point]",
CCOc1cccc(N2C(=O)CC(=O)NC2=O)c1,-217%,,

Structure (SMILES),cell number change,AC50 [1],AC50 [2]
O=c1[nH]c(=O)n(Cc2ccc(F)cc2)c(O)c1C=NCCCN1CCOCC1,-10.1%,,"1.16 µM [falling, full curve, poor fit]"
Cc1cccc(OP(N)(N)=O)c1C,-8.1%,,"0.13 µM [falling, partial curve, poor fit]"
O=c1[nH]c(=O)n(CCC2=CCCCC2)c(O)c1C=NCc1cccnc1,10.5%,"6.51 µM [falling, single point]",
Cn1cc(C(=O)Cc2ccccc2)c2ccccc21,21.5%,"4.61 µM [rising, partial curve, poor fit]",
COc1ccc(Cl)cc1C(=O)C1CCCN(Cc2cnc(C)s2)C1 (stereo not drawn),-3.61%,"0.58 µM [falling, full curve, poor fit]",
C=CCn1c(O)c(C=NCCN(C)C)c(=O)[nH]c1=O,131%,"0.00411 µM [rising, full curve, poor fit]",
COc1cccc(N=Cc2c(O)n(Cc3ccco3)c(=O)[nH]c2=O)c1,11.3%,"1.64 µM [rising, single point]",
CCCCn1c(O)c(C(C)=NCCCN(CC)CC)c(=O)[nH]c1=O,,"23.1 µM [falling, partial curve]",
CCC1(CC)C(=O)N(C)C(=O)NC1=NC,22.9%,"23.1 µM [rising, single point]",
O=C1NC(=O)C2(Cc3ccccc3N3CCCC32)C(=O)N1c1cccc(Cl)c1 (stereo not drawn),0.101%,"0.146 µM [falling, full curve, poor fit]",
O=C(COc1ccc2ccccc2c1)N1CCN(C2CCN(Cc3ccccc3)CC2)CC1,,"0.82 µM [falling, single point]",
COc1ccc(OC)c(-n2c(O)c(C=NCc3ccc4c(c3)OCO4)c(=O)[nH]c2=O)c1,-12.5%,,
CC(=NCCC1=CCCCC1)c1c(O)[nH]c(=O)[nH]c1=O,-48.3%,"3.26 µM [falling, full curve]","3.66 µM [falling, full curve]"
O=C(C1CCN(S(=O)(=O)N2CCOCC2)CC1)N1CCC2(CC1)OCCO2,-6.59%,"29.1 µM [rising, single point]",
CC1CCN(CC(=O)c2cccc(C(F)(F)F)c2)CC1,2.13%,,
CNC(=O)Oc1ccc(-c2cn3cc(C)ccc3n2)cc1,1.58%,"0.184 µM [rising, partial curve, poor fit]",
O=P(Oc1ccccc1)(Oc1ccccc1)C(O)c1ccc(Cl)cc1 (stereo not drawn),-49.8%,,"20.6 µM [falling, single point]"
Nc1c(C(=O)NCc2ccco2)c2nc3ccccc3nc2n1Cc1ccc(F)cc1,-83.6%,"0.58 µM [rising, single point]","3.26 µM [rising, partial curve, poor fit]"
CCN(CC)c1ccc(N=Cc2c(O)n(Cc3ccccc3)c(=O)[nH]c2=O)cc1,30.8% and 21.3%,"5.8 µM [rising, partial curve] and 14.6 µM [rising, partial curve, poor fit]","2.59 µM [rising, full curve]"
